PubChem BioAssay AID1259308 | NCATS – 2017

- Purpose: 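Genes whose loss raises luciferase production in HEK293 cells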 (primary screen)
- Cell system: human HEK293 embryonic kidney cells stably expressing firefly luciferase (HEK-CMV-Luc2-Hygro)
- Reagents: single siRNA against human genes, 0.8 pmol siRNA per well
- Time to read-out: 72 h
- Measured: 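Luciferase light (ONE-Glo) measured on one replicate plate set and viability (CellTiter-Glo) on the other, scaled to a negative control siRNA, with robust z-scores and luciferase per cell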
- Scale: total luciferase, z-score: higher = more reporter protein produced
- Call rule: 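Active when the median/MAD z-score for overall luciferase is greater than 3; a gene was taken forward for validation with new siRNAs if at least two of its three siRNAs passed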
- Calls: active = raised luciferase; inactive = no rise
This is one part, drawn at random, of about 59,000 reagents. Over the whole deposit, about 1,510 (2.6%) got an active call. 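Calls use total luciferase alone and ignore viability, so some active siRNAs may act by altering cell number.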 Reagents against one gene are numbered here. Not all columns of the deposit are shown.

target | siRNA no. | total luciferase, z-score | activity call
OCEL1 (GeneID 79629) | 1 | 4.01 | active
OCEL1 (GeneID 79629) | 2 | -0.899 | inactive
OCEL1 (GeneID 79629) | 3 | -1.18 | inactive
ZSCAN22 (GeneID 342945) | 1 | -2.03 | inactive
ZSCAN22 (GeneID 342945) | 2 | -3.28 | inactive
ZSCAN22 (GeneID 342945) | 3 | -0.568 | inactive
CPXM1 (GeneID 56265) | 1 | 0.747 | inactive
CPXM1 (GeneID 56265) | 2 | -0.704 | inactive
CPXM1 (GeneID 56265) | 3 | 2.76 | inactive
TMEM51 (GeneID 55092) | 1 | -2.91 | inactive
TMEM51 (GeneID 55092) | 2 | 0.374 | inactive
TMEM51 (GeneID 55092) | 3 | 0.238 | inactive
TRIP6 (GeneID 7205) | 1 | 4.34 | active
TRIP6 (GeneID 7205) | 2 | 0.788 | inactive
TRIP6 (GeneID 7205) | 3 | -1.02 | inactive
OLFM3 (GeneID 118427) | 1 | -0.823 | inactive
OLFM3 (GeneID 118427) | 2 | -0.648 | inactive
OLFM3 (GeneID 118427) | 3 | 0.392 | inactive
CASC15 (GeneID 401237) | 1 | 0.379 | inactive
CASC15 (GeneID 401237) | 2 | -0.795 | inactive
CASC15 (GeneID 401237) | 3 | -1.53 | inactive
HEPN1 (GeneID 641654) | 1 | 0.537 | inactive
HEPN1 (GeneID 641654) | 2 | 1.66 | inactive
HEPN1 (GeneID 641654) | 3 | 0.295 | inactive
FAM204A (GeneID 63877) | 1 | 0.171 | inactive
FAM204A (GeneID 63877) | 2 | 0.31 | inactive
FAM204A (GeneID 63877) | 3 | -0.567 | inactive

Next part (6 carried over from the part before).
target | siRNA no. | total luciferase, z-score | activity call
HEPN1 (GeneID 641654) | 1 | 0.537 | inactive
HEPN1 (GeneID 641654) | 2 | 1.66 | inactive
HEPN1 (GeneID 641654) | 3 | 0.295 | inactive
FAM204A (GeneID 63877) | 1 | 0.171 | inactive
FAM204A (GeneID 63877) | 2 | 0.31 | inactive
FAM204A (GeneID 63877) | 3 | -0.567 | inactive
HLA-DPB1 (GeneID 3115) | 1 | 0.451 | inactive
HLA-DPB1 (GeneID 3115) | 2 | 0.527 | inactive
HLA-DPB1 (GeneID 3115) | 3 | 0.853 | inactive
TPT1P8 (GeneID 59347) | 1 | 2.33 | inactive
TPT1P8 (GeneID 59347) | 2 | 0.129 | inactive
TPT1P8 (GeneID 59347) | 3 | -0.385 | inactive
SENP8 (GeneID 123228) | 1 | 0.0472 | inactive
SENP8 (GeneID 123228) | 2 | 1 | inactive
SENP8 (GeneID 123228) | 3 | 0.709 | inactive
SBDS (GeneID 51119) | 1 | -0.146 | inactive
SBDS (GeneID 51119) | 2 | -0.432 | inactive
SBDS (GeneID 51119) | 3 | -2.54 | inactive
TMCO2 (GeneID 127391) | 1 | -0.947 | inactive
TMCO2 (GeneID 127391) | 2 | 0.202 | inactive
TMCO2 (GeneID 127391) | 3 | -0.666 | inactive
BRD8 (GeneID 10902) | 1 | -0.214 | inactive
BRD8 (GeneID 10902) | 2 | -1.12 | inactive
BRD8 (GeneID 10902) | 3 | 0.631 | inactive
MIIP (GeneID 60672) | 1 | -1.4 | inactive
MIIP (GeneID 60672) | 2 | 1.31 | inactive
MIIP (GeneID 60672) | 3 | 1.62 | inactive
IRGQ (GeneID 126298) | 1 | 0.417 | inactive
IRGQ (GeneID 126298) | 2 | -1.85 | inactive
IRGQ (GeneID 126298) | 3 | -1.53 | inactive
LRP10 (GeneID 26020) | 1 | -0.21 | inactive
LRP10 (GeneID 26020) | 2 | -0.908 | inactive
LRP10 (GeneID 26020) | 3 | 1.19 | inactive
NECAB2 (GeneID 54550) | 1 | -0.73 | inactive
NECAB2 (GeneID 54550) | 2 | 0.515 | inactive
NECAB2 (GeneID 54550) | 3 | -1.28 | inactive
